Results as given in patent US6958151B2 (priority 2002, dated 2005).
Values joined by “and” are separate entries in the source; they are usually repeats but may differ in a detail not shown here. Equal entries are not always repeated. Where two headings read alike, the source gives them in different places. Not every detail of the peptide structures is certain; ends, links or a residue may be inferred. Residues, ends and D or L forms follow the SMILES beside them.

The chains behind the UniProt entries cited, without tags or fusion partners. Residues count along the entry.
UniProt P29837, 580-675 limits assumed: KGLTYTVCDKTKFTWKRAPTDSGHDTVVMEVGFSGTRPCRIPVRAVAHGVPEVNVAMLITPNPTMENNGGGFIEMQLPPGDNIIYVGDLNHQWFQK
UniProt Q7T6D2, 580-675 limits assumed: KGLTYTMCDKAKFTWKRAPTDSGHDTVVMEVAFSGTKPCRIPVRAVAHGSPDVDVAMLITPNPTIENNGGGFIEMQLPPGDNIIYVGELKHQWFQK

Legend:
[1] = molecular target: LGT-E-D3 (Langat virus, UniProt P29837); assay type: binding; settings: LGT-E-D3, 1 nM, 20 mM Hepes buffer, pH 7.4
[2] = tested on: POW virus; design: species or system NIH Swiss mice; settings: mouse, in vivo
[3] = molecular target: OHF-E-D3 (Omsk hemorrhagic fever virus, UniProt Q7T6D2); assay type: binding
[4] = read-out: Kd1, curve fit with two binding affinities
[5] = read-out: Kd2, weaker second affinity

**Q.** What does the source list for N=C(N)NCCC[C@H](NC(=O)[C@@H]1CSSC[C@@H]2NC(=O)[C@@H](NC(=O)[C@@H](N)CCCNC(=N)N)CSSC[C@H](NC(=O)[C@H](CCC(N)=O)NC(=O)[C@@H]3CCCN3C(=O)[C@H](Cc3c[nH]cn3)NC2=O)C(=O)N[C@@H](CCCCN)C(=O)N[C@@H](CCC(=O)O)C(=O)NCC(=O)N[C@@H](CCCCN)C(=O)N[C@@H](CCCCN)C(=O)N1)C(=O)O [MP-100C, RCCHPQCKEGKKCR (SEQ ID NO:157)] (HELM PEPTIDE1{R.C.C.H.P.Q.C.K.E.G.K.K.C.R}$PEPTIDE1,PEPTIDE1,2:R3-7:R3|PEPTIDE1,PEPTIDE1,3:R3-13:R3$$$V2.0; N-terminus and C-terminus assumed)?
**A.** Kd [1, 4]: ~60 µM and 60 µM; Kd [1, 5]: 2000 µM; onset of disease / illness [2]: remained healthy longer; survival [2]: survived longer; Kd ([3]; read-out: Kd1): 30 µM; Kd ([3]; read-out: Kd2): 1800 µM

**Q.** N=C(N)NCCC[C@H](NC(=O)[C@@H]1CSSC[C@H](NC(=O)[C@@H](N)CCCNC(=N)N)C(=O)N[C@H]2CSSC[C@H](NC(=O)[C@H](CCC(N)=O)NC(=O)[C@@H]3CCCN3C(=O)[C@H](Cc3c[nH]cn3)NC2=O)C(=O)N[C@@H](CCCCN)C(=O)N[C@@H](CCC(=O)O)C(=O)NCC(=O)N[C@@H](CCCCN)C(=O)N[C@@H](CCCCN)C(=O)N1)C(=O)O [MP-100N, RCCHPQCKEGKKCR (SEQ ID NO:157)] (HELM PEPTIDE1{R.C.C.H.P.Q.C.K.E.G.K.K.C.R}$PEPTIDE1,PEPTIDE1,2:R3-13:R3|PEPTIDE1,PEPTIDE1,3:R3-7:R3$$$V2.0; N-terminus and C-terminus assumed) was tested. Which Kd [1, 4] did it give?
**A.** ~164 µM and 164 µM

**Q.** What about the Kd [1, 5] of the same compound?
**A.** 3050 µM

**Q.** What about the “onset of disease / illness” value [2] of the same compound?
**A.** did not show protection from onset of illness

**Q.** And the survival [2]?
**A.** some protection with an increase in long-term survival

**Q.** And the Kd ([3]; read-out: Kd1)?
**A.** 16 µM

**Q.** What about the Kd ([3]; read-out: Kd2) of the same compound?
**A.** 900 µM
